Test results reported in patent publication US20180064666A1.
These are yes or no findings as the source states them, for the method shown. For some of these results: Binding seen in cells or lysates may run through a third protein. Some binding calls cover weakened binding; strength is not graded here.

Protein sequences, listed by entry. Tags and fused reporters are not part of them. Lines headed by an entry give the natural chain unless they say otherwise; changes in a name come on top. Residues count along the entry.
UniProt P27361: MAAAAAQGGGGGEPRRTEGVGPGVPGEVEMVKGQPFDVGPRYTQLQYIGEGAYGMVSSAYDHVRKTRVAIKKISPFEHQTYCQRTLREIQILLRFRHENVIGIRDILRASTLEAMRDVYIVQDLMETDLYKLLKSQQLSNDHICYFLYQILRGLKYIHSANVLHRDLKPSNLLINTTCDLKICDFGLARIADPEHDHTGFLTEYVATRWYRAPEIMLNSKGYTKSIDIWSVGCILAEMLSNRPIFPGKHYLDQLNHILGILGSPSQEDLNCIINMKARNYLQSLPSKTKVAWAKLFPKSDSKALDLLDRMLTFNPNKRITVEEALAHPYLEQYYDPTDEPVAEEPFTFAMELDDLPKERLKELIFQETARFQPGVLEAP
Erk1 (endogenous, member of Erk1/2) (human (endogenous in human cell lines)): residues 2-379 of P27361
UniProt P28482: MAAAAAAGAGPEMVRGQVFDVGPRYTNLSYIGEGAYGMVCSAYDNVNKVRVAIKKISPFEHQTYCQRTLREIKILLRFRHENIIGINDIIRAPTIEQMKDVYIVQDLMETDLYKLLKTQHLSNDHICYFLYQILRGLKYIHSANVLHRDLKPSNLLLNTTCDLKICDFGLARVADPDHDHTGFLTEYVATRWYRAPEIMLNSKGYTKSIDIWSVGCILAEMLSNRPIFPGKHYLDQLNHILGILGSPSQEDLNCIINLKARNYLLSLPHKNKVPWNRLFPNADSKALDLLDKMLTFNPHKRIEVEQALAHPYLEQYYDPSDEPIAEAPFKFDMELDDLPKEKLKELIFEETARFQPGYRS
Erk2 (endogenous, member of Erk1/2) (human (endogenous in human cell lines)): residues 2-360 of P28482
UniProt P61019: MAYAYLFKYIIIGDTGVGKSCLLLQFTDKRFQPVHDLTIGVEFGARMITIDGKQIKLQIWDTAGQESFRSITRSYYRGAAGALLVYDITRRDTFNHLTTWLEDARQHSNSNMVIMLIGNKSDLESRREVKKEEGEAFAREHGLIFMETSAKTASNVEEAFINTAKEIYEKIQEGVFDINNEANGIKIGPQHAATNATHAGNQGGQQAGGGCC

Columns and labels:
[1] = target: recombinant Erk1 (UniProt P27361); test: in vitro binding of recombinant proteins to GST-Rab2A (FIG. 47A)
[2] = target: recombinant Erk2 (UniProt P28482); test: as above
[3] = target: Erk1 (endogenous, member of Erk1/2) (human (endogenous in human cell lines)) (UniProt P27361); test: GST pull-down (FIG. 45F)
[4] = target: Erk2 (endogenous, member of Erk1/2) (human (endogenous in human cell lines)) (UniProt P28482); test: GST pull-down (FIG. 45F)

binding [1]: binds
binding [2]: binds
binding [3]: binds
binding [4]: binds
Substance: GST-Rab2A fusion protein (wild-type) (from UniProt P61019 1-212) (enzyme)
